{
  "source": "paper PMC7889586",
  "about": "“Effects of Conserved Wedge Domain Residues on DNA Binding Activity of Deinococcus radiodurans RecG Helicase”",
  "key": {"[1]": {"target": "T1, DrRecG-WD FSA Q201F,P202S,W203A (Deinococcus radiodurans R1) (UniProt Q9RT50)", "T1 sequence (looked up)": "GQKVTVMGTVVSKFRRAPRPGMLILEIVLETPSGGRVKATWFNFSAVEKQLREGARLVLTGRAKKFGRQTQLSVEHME", "assay": "EMSA", "details": "100 nM HJ, dramatically reduced vs DrRecG-WD WT, 5 mM EDTA, 50 mM Tris-HCl pH 8.0, 5 mM EDTA, 1 mM DTT, 100 ug/ml BSA, 6% glycerol, on ice 15 min, 6% polyacrylamide gel at room temperature, recombinant protein, residues 158-235, protein details: MBP (N-terminal fusion, pMAL-c2x), folded or branched DNA"}, "[2]": {"target": "T2, EcRecG-WD WT (Escherichia coli MG1655) (UniProt P24230)", "T2 sequence (looked up)": "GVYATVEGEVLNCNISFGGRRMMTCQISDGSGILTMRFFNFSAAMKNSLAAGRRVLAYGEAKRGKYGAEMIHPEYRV", "assay": "EMSA", "details": "100 nM HJ, no saturation up to 640 nM protein, 5 mM EDTA, 50 mM Tris-HCl pH 8.0, 5 mM EDTA, 1 mM DTT, 100 ug/ml BSA, 6% glycerol, on ice 15 min, 6% polyacrylamide gel at room temperature, recombinant protein, residues 59-135, protein details: MBP (N-terminal fusion, pMAL-c2x), folded or branched DNA"}},
  "note": "A weaker result is weaker than the reference pair of the same experiment. Protein sequences can lack the tags named with them.",
  "data": [
    {"sequence": "GTCGGATCCTCTAGACAGCTCCATGATCACTGGCACTGGTAGAATTCGGC / CAACGTCATAGACGATTACATTGCTACATGGAGCTGTCTAGAGGATCCGA / TGCCGAATTCTACCAGTGCCAGTGATGGACATCTTTGCCACGTTGACCC / TGGGTCAACGTGGGCAAGATGTCCTAGCAATGTAATCGTCTATGACGT [Holliday junction (oligos 1-4)]", "values": [
      {"measurement": "binding result", "setting": "[1]", "value": "binds more weakly"},
      {"measurement": "binding result", "setting": "[2]", "value": "binds more weakly"}
    ]}
  ]
}
